Experimental data taken from the M2OR odorant receptor database.
The list shows a part of the results, in another mix than the full data. The calls were merged from several studies; some rest on single wells.

The molecules below were run against T1, OR51I1 (Homo sapiens) (UniProt Q9H343). Settings: stereoisomer not certain.
T1 sequence (whole entry): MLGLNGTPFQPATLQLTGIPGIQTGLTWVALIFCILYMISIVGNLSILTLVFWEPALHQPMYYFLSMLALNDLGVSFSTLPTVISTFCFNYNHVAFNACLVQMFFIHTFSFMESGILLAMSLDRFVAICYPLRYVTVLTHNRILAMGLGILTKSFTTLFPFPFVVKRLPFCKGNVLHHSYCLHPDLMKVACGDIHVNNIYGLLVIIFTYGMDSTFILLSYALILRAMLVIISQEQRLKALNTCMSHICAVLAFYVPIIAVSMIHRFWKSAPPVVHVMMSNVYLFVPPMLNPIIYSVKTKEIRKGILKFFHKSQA
Outline: (§1)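 Whether a receptor–molecule pair is responsive (active) rests on the original authors' judgment that its measured signal was statistically different from baseline. Pairs without that judgment are non-responsive (inactive). Sources used varied assay methods, commonly transient luciferase assays in mammalian cell lines.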
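Note: active if original authors judged signal statistically different from baseline.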

Odorant receptor agonist call, active:
C=C(C)C1CCC2=CC(=O)CC(C)C2(C)C1 (stereo not drawn)
CC(C)(O)CCCC1=CCC(C=O)CC1 (stereo not drawn)
CCCCCCCCCCC=O
CCCCCOC(C)=O
CC1COCc2cc3c(cc21)C(C)(C)C(C)C3(C)C (stereo not drawn)

Odorant receptor agonist call, inactive:
CC1CCC(C(C)C)C(O)C1 (stereo not drawn)
CC12C=CCC1C1CCC3CC(=O)CCC3(C)C1CC2 (stereo not drawn)
CC12C=CCC1C1CCC3=CC(=O)CCC3(C)C1CC2 (stereo not drawn)
CCCCO
CCCCCCCC=CC=O
CC(=O)OC1CC2CCC1(C)C2(C)C (stereo not drawn)
C=CC(C)(O)CCC=C(C)C (stereo not drawn)
O=C1CCCCCCCCCCCC(=O)OCCO1
CC=Cc1ccc(O)c(OC)c1
CC12CCC(CC1)C(C)(C)O2
CCCCCCOC(=O)CCC
CCCCCCCCCC=O
O=C1CCCCCCCCCCCCCCO1
CC(C)CC(=O)O

The molecules below were run against T2, OR51I2 (Homo sapiens) (UniProt Q9H344). Settings: stereoisomer not certain.
T2 sequence (whole entry): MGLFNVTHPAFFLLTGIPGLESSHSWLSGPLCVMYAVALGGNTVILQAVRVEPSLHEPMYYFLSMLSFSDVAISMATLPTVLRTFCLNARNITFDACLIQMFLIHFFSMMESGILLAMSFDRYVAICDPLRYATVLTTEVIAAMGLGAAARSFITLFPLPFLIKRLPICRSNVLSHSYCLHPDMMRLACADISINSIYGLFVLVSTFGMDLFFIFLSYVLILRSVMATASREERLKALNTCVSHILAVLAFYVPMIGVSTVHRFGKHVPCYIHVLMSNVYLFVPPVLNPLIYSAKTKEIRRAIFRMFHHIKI
Outline: as §1

Odorant receptor agonist call, inactive:
CC1CCC(C(C)C)C(O)C1 (stereo not drawn)
CCCCCC(C)=O
CC(=O)c1ccccc1
CC12C=CCC1C1CCC3=CC(=O)CCC3(C)C1CC2 (stereo not drawn)
CCCCO
CCCCCCCC=CC=O
COC(=O)c1ccccc1
CC(=O)OC1CC2CCC1(C)C2(C)C (stereo not drawn)
CCCCCCCCCCC=O
C=CC(C)(O)CCC=C(C)C (stereo not drawn)
O=C1CCCCCCCCCCCC(=O)OCCO1
CC=Cc1ccc(O)c(OC)c1
CCCCCOC(C)=O
O=C1CCCCC1
CC12CCC(CC1)C(C)(C)O2
CCCCCCOC(=O)CCC
CCCCCCCCCC=O
CC1=NC(C)SC1C (stereo not drawn)
O=C1CCCCCCCCCCCCCCO1
CC(C)CC(=O)O
CC1COCc2cc3c(cc21)C(C)(C)C(C)C3(C)C (stereo not drawn)

The molecules below were run against T3, OR51L1 (Homo sapiens) (UniProt Q8NGJ5). Settings: stereoisomer not certain.
T3 sequence (whole entry): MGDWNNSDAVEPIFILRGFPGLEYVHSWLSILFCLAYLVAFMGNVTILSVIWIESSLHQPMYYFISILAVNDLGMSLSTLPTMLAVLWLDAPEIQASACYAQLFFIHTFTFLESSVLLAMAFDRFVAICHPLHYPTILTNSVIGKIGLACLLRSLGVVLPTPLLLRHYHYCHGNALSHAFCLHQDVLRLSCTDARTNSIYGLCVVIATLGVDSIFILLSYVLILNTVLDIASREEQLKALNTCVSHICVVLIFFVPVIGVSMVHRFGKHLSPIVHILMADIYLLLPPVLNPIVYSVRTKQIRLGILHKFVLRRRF
Outline: as §1

Odorant receptor agonist call, active:
CC1CCC(C(C)C)C(O)C1 (stereo not drawn)
CC1COCc2cc3c(cc21)C(C)(C)C(C)C3(C)C (stereo not drawn)

Odorant receptor agonist call, inactive:
CCCCCC(C)=O
CC(=O)c1ccccc1
CC12C=CCC1C1CCC3=CC(=O)CCC3(C)C1CC2 (stereo not drawn)
CCCCO
CCCCCCC=O
CCCCCCCC=CC=O
COC(=O)c1ccccc1
CCCCCCCCC=O
CC(=O)OC1CC2CCC1(C)C2(C)C (stereo not drawn)
CC(C)(O)CCCC1=CCC(C=O)CC1 (stereo not drawn)
CCCCCCCCCCC=O
C=CC(C)(O)CCC=C(C)C (stereo not drawn)
C=C(C)C1CC=C(C)C(=O)C1 (stereo not drawn)
O=C1CCCCCCCCCCCC(=O)OCCO1
CC=Cc1ccc(O)c(OC)c1
CCCCCOC(C)=O
O=C1CCCCC1
CC12CCC(CC1)C(C)(C)O2
CCCCCCOC(=O)CCC
CCCCCCCCCC=O
CC1=NC(C)SC1C (stereo not drawn)
O=C1CCCCCCCCCCCCCCO1
CC(C)CC(=O)O

What follows are molecules tested against T4, OR51S1 (Homo sapiens) (UniProt Q8NGJ8). Settings: stereoisomer not certain.
T4 sequence (whole entry): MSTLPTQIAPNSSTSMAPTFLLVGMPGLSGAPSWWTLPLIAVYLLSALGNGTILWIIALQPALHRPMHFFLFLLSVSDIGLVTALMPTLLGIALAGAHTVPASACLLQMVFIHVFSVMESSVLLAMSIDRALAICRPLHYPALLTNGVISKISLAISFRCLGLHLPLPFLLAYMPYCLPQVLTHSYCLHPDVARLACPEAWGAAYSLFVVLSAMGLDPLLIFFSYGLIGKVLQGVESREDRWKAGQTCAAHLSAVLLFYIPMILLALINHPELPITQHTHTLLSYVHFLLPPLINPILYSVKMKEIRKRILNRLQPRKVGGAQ
Outline: as §1

Odorant receptor agonist call, active:
C=C(C)C1CCC2=CC(=O)CC(C)C2(C)C1 (stereo not drawn)
CC(=O)OC1CC2CCC1(C)C2(C)C (stereo not drawn)
CC=Cc1ccc(O)c(OC)c1
CC1COCc2cc3c(cc21)C(C)(C)C(C)C3(C)C (stereo not drawn)

Odorant receptor agonist call, inactive:
CC1CCC(C(C)C)C(O)C1 (stereo not drawn)
CC12C=CCC1C1CCC3CC(=O)CCC3(C)C1CC2 (stereo not drawn)
CC12C=CCC1C1CCC3=CC(=O)CCC3(C)C1CC2 (stereo not drawn)
CCCCO
CCCCCCCC=CC=O
CC(C)(O)CCCC1=CCC(C=O)CC1 (stereo not drawn)
CCCCCCCCCCC=O
C=CC(C)(O)CCC=C(C)C (stereo not drawn)
O=C1CCCCCCCCCCCC(=O)OCCO1
CCCCCOC(C)=O
CC12CCC(CC1)C(C)(C)O2
CCCCCCOC(=O)CCC
CCCCCCCCCC=O
O=C1CCCCCCCCCCCCCCO1
CC(C)CC(=O)O

Each molecule was assayed against T5, OR52A4P (Homo sapiens) (UniProt A6NMU1). Settings: stereoisomer not certain.
T5 sequence (whole entry): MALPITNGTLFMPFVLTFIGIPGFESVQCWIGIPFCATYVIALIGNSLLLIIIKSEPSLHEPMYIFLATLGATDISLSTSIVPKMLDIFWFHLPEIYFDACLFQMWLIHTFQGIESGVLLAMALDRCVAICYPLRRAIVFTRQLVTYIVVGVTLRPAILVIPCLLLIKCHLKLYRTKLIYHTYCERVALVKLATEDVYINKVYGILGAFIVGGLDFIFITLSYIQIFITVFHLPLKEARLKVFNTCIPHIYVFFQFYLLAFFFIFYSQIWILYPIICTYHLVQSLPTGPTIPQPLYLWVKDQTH
Outline: as §1

Odorant receptor agonist call, active:
O=C1CCCCCCCCCCCC(=O)OCCO1
CC=Cc1ccc(O)c(OC)c1

Odorant receptor agonist call, inactive:
CC1CCC(C(C)C)C(O)C1 (stereo not drawn)
CC12C=CCC1C1CCC3CC(=O)CCC3(C)C1CC2 (stereo not drawn)
CC12C=CCC1C1CCC3=CC(=O)CCC3(C)C1CC2 (stereo not drawn)
CCCCO
CCCCCCCC=CC=O
C=C(C)C1CCC2=CC(=O)CC(C)C2(C)C1 (stereo not drawn)
CC(=O)OC1CC2CCC1(C)C2(C)C (stereo not drawn)
CC(C)(O)CCCC1=CCC(C=O)CC1 (stereo not drawn)
CCCCCCCCCCC=O
C=CC(C)(O)CCC=C(C)C (stereo not drawn)
CCCCCOC(C)=O
CC12CCC(CC1)C(C)(C)O2
CCCCCCOC(=O)CCC
CCCCCCCCCC=O
O=C1CCCCCCCCCCCCCCO1
CC(C)CC(=O)O
CC1COCc2cc3c(cc21)C(C)(C)C(C)C3(C)C (stereo not drawn)
